{"source": "the supplement of paper PMC8728848", "binders": {"B1": {"name": "PX9961KLbvu-535-38-535 (Bacteroides vulgatus) (protein)", "chain": "DKAYTDAESYTKGLHKIYSVWALSGQDGSSSSDISGLDAGNTALLRCWWTLQEQPTDEMKNAWNDAWCTEVNYMTWTTNKVEPIEGVYQRCMYIVALVNEFLKNIPNAPESIDKESYIAQARFNRAFAYYVLMDMFALPPFITEKNYSIEPAPLSREDLFNWIEAELNEIKPNLPSPRSEYGVADQAVASALLARMYLNAEIYTGKARYTECINACNEVIKAGYQLADNYADLFKADNGENPDTKKEIIYPIIFDGDKTQSWGMAAIIIGARGAEDKDVLLAHSGVDQGWAGFRATSNLVHLFDFQNDEEPKASEIQDKRGIFYDKGRSIDITSSVSGTFETEGWSVFKFSNLNSNGQPGKNTLWVDTDFPMFRLGDIYLMYAEAVARGGEGSKASAVEYINALRKRAYGDDKHNISENWLEENNFRNLLDERGRELYWEGIRRTDLVRFDLLTSGSYTWDFKGGINTGVGVNKRYNVYPIPVTDLTVNGNLQQNEGY"}}, "assay_in_all_cases": "glycan array binding signal (z-score within array); higher = stronger binding", "settings_in_all_cases": "glycan notation: IUPAC condensed, linker removed", "key": {"[1]": {"target": "Fuc(a1-2)[Gal(a1-3)]Gal(b1-4)GlcNAc(b1-2)Man(a1-3)[Fuc(a1-2)[Gal(a1-3)]Gal(b1-4)GlcNAc(b1-2)Man(a1-6)]Man(b1-4)GlcNAc(b1-4)[Fuc(a1-6)]GlcNAc", "in_short": "(§1)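 Arrays were curated from the Consortium for Functional Glycomics database, 3228 in total, and kept only where the protein sequence was available. Binding is expressed as a within-array Z-score. This score was averaged across arrays of the same protein sequence at different concentrations or buffers and across linkers, and negative values can be read as non-binding.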"}, "[2]": {"target": "Fuc(a1-2)[Gal(a1-3)]Gal(b1-4)GlcNAc(b1-3)GalNAc", "in_short": "as §1"}, "[3]": {"target": "Fuc(a1-2)[Gal(a1-3)]Gal(b1-4)GlcNAc(b1-3)[Fuc(a1-2)[Gal(a1-3)]Gal(b1-4)GlcNAc(b1-6)]GalNAc", "in_short": "as §1"}, "[4]": {"target": "Fuc(a1-2)[Gal(a1-3)]Gal(b1-4)GlcNAc(b1-6)GalNAc", "in_short": "as §1"}, "[5]": {"target": "Fuc(a1-2)[Gal(a1-3)]Gal(b1-4)[Fuc(a1-3)]Glc", "in_short": "as §1"}, "[6]": {"target": "Fuc(a1-2)[Gal(a1-3)]Gal(b1-4)[Fuc(a1-3)]GlcNAc", "in_short": "as §1"}, "[7]": {"target": "Fuc(a1-2)[Gal(a1-3)]Gal(b1-4)[Fuc(a1-3)]GlcNAc(b1-3)GalNAc", "in_short": "as §1"}, "[8]": {"target": "Fuc(a1-2)[Gal(a1-4)]Gal(b1-4)GlcNAc", "in_short": "as §1"}, "[9]": {"target": "Fuc(a1-2)[GalNAc(a1-3)]Gal", "in_short": "as §1"}, "[10]": {"target": "Fuc(a1-2)[GalNAc(a1-3)]Gal(b1-3)GalNAc(a1-3)[Fuc(a1-2)]Gal(b1-4)GlcNAc", "in_short": "as §1"}, "[11]": {"target": "Fuc(a1-2)[GalNAc(a1-3)]Gal(b1-3)GalNAc(b1-3)Gal(a1-4)Gal(b1-4)Glc", "in_short": "as §1"}, "[12]": {"target": "Fuc(a1-2)[GalNAc(a1-3)]Gal(b1-3)GlcNAc", "in_short": "as §1"}, "[13]": {"target": "Fuc(a1-2)[GalNAc(a1-3)]Gal(b1-3)GlcNAc(b1-2)Man(a1-3)[Fuc(a1-2)[GalNAc(a1-3)]Gal(b1-3)GlcNAc(b1-2)Man(a1-6)]Man(b1-4)GlcNAc(b1-4)GlcNAc", "in_short": "as §1"}, "[14]": {"target": "Fuc(a1-2)[GalNAc(a1-3)]Gal(b1-3)GlcNAc(b1-2)Man(a1-3)[Fuc(a1-2)[GalNAc(a1-3)]Gal(b1-3)GlcNAc(b1-2)Man(a1-6)]Man(b1-4)GlcNAc(b1-4)[Fuc(a1-6)]GlcNAc", "in_short": "as §1"}, "[15]": {"target": "Fuc(a1-2)[GalNAc(a1-3)]Gal(b1-3)GlcNAc(b1-3)GalNAc", "in_short": "as §1"}, "[16]": {"target": "Fuc(a1-2)[GalNAc(a1-3)]Gal(b1-3)GlcNAc(b1-6)GalNAc", "in_short": "as §1"}, "[17]": {"target": "Fuc(a1-2)[GalNAc(a1-3)]Gal(b1-4)Glc", "in_short": "as §1"}, "[18]": {"target": "Fuc(a1-2)[GalNAc(a1-3)]Gal(b1-4)GlcNAc", "in_short": "as §1"}, "[19]": {"target": "Fuc(a1-2)[GalNAc(a1-3)]Gal(b1-4)GlcNAc(b1-2)Man", "in_short": "as §1"}, "[20]": {"target": "Fuc(a1-2)[GalNAc(a1-3)]Gal(b1-4)GlcNAc(b1-2)Man(a1-3)[Fuc(a1-2)[GalNAc(a1-3)]Gal(b1-4)GlcNAc(b1-2)Man(a1-6)]Man(b1-4)GlcNAc(b1-4)GlcNAc", "in_short": "as §1"}, "[21]": {"target": "Fuc(a1-2)[GalNAc(a1-3)]Gal(b1-4)GlcNAc(b1-2)Man(a1-3)[Fuc(a1-2)[GalNAc(a1-3)]Gal(b1-4)GlcNAc(b1-2)Man(a1-6)]Man(b1-4)GlcNAc(b1-4)[Fuc(a1-6)]GlcNAc", "in_short": "as §1"}, "[22]": {"target": "Fuc(a1-2)[GalNAc(a1-3)]Gal(b1-4)GlcNAc(b1-3)Gal(b1-4)GlcNAc", "in_short": "as §1"}, "[23]": {"target": "Fuc(a1-2)[GalNAc(a1-3)]Gal(b1-4)GlcNAc(b1-3)Gal(b1-4)GlcNAc(b1-3)Gal(b1-4)GlcNAc", "in_short": "as §1"}, "[24]": {"target": "Fuc(a1-2)[GalNAc(a1-3)]Gal(b1-4)GlcNAc(b1-3)GalNAc", "in_short": "as §1"}, "[25]": {"target": "Fuc(a1-2)[GalNAc(a1-3)]Gal(b1-4)GlcNAc(b1-3)[Fuc(a1-2)[GalNAc(a1-3)]Gal(b1-4)GlcNAc(b1-6)]GalNAc", "in_short": "as §1"}, "[26]": {"target": "Fuc(a1-2)[GalNAc(a1-3)]Gal(b1-4)GlcNAc(b1-6)GalNAc", "in_short": "as §1"}, "[27]": {"target": "Fuc(a1-2)[GalNAc(a1-3)]Gal(b1-4)[Fuc(a1-3)]GlcNAc", "in_short": "as §1"}, "[28]": {"target": "Fuc(a1-2)[GalNAc(a1-3)]Gal(b1-4)[Fuc(a1-3)]GlcNAc(b1-3)GalNAc", "in_short": "as §1"}, "[29]": {"target": "Fuc(a1-2)[GalNAc(a1-4)]Gal(b1-4)GlcNAc", "in_short": "as §1"}, "[30]": {"target": "Fuc(a1-2)[GalNAc(b1-3)]Gal", "in_short": "as §1"}, "Fuc(a1-3)GlcNAc": {"target": "Fuc(a1-3)GlcNAc", "in_short": "as §1"}, "[31]": {"target": "Fuc(a1-3)[Gal(b1-4)]Glc6S", "in_short": "as §1"}, "[32]": {"target": "Fuc(a1-3)[Gal(b1-4)]GlcNAc", "in_short": "as §1"}, "[33]": {"target": "Fuc(a1-3)[Gal(b1-4)]GlcNAc(b1-2)Man", "in_short": "as §1"}, "[34]": {"target": "Fuc(a1-3)[Gal(b1-4)]GlcNAc(b1-2)Man(a1-3)[Fuc(a1-3)[Gal(b1-4)]GlcNAc(b1-2)Man(a1-6)]Man(b1-4)GlcNAc(b1-4)GlcNAc", "in_short": "as §1"}, "[35]": {"target": "Fuc(a1-3)[Gal(b1-4)]GlcNAc(b1-2)Man(a1-3)[Fuc(a1-3)[Gal(b1-4)]GlcNAc(b1-2)Man(a1-6)]Man(b1-4)GlcNAc(b1-4)[Fuc(a1-6)]GlcNAc", "in_short": "as §1"}, "[36]": {"target": "Fuc(a1-3)[Gal(b1-4)]GlcNAc(b1-3)Gal(b1-3)[Fuc(a1-4)]GlcNAc", "in_short": "as §1"}, "[37]": {"target": "Fuc(a1-3)[Gal(b1-4)]GlcNAc(b1-3)Gal(b1-4)[Fuc(a1-3)]GlcNAc", "in_short": "as §1"}, "[38]": {"target": "Fuc(a1-3)[Gal(b1-4)]GlcNAc(b1-3)Gal(b1-4)[Fuc(a1-3)]GlcNAc(b1-3)Gal(b1-4)[Fuc(a1-3)]GlcNAc", "in_short": "as §1"}, "[39]": {"target": "Fuc(a1-3)[Gal(b1-4)]GlcNAc(b1-3)GalNAc", "in_short": "as §1"}, "[40]": {"target": "Fuc(a1-3)[Gal(b1-4)]GlcNAc(b1-6)GalNAc", "in_short": "as §1"}, "[41]": {"target": "Fuc(a1-3)[Gal(b1-4)]GlcNAc(b1-6)[Gal(b1-3)GlcNAc(b1-3)]Gal(b1-4)Glc", "in_short": "as §1"}, "[42]": {"target": "Fuc(a1-3)[Gal(b1-4)]GlcNAc6S", "in_short": "as §1"}, "[43]": {"target": "Fuc(a1-3)[Gal3S(b1-4)]Glc", "in_short": "as §1"}, "[44]": {"target": "Fuc(a1-3)[Gal3S(b1-4)]GlcNAc", "in_short": "as §1"}}, "note": "The other results are listed elsewhere or left out.", "data": [{"binder": "B1", "values": [{"measurement": "glycan array binding signal (z-score)", "setting": "[1]", "value": -0.013}, {"measurement": "glycan array binding signal (z-score)", "setting": "[2]", "value": -0.263}, {"measurement": "glycan array binding signal (z-score)", "setting": "[3]", "value": -0.09}, {"measurement": "glycan array binding signal (z-score)", "setting": "[4]", "value": -0.819}, {"measurement": "glycan array binding signal (z-score)", "setting": "[5]", "value": -0.09}, {"measurement": "glycan array binding signal (z-score)", "setting": "[6]", "value": 0.203}, {"measurement": "glycan array binding signal (z-score)", "setting": "[7]", "value": 0.007}, {"measurement": "glycan array binding signal (z-score)", "setting": "[8]", "value": -0.189}, {"measurement": "glycan array binding signal (z-score)", "setting": "[9]", "value": -0.346}, {"measurement": "glycan array binding signal (z-score)", "setting": "[10]", "value": -0.903}, {"measurement": "glycan array binding signal (z-score)", "setting": "[11]", "value": 0.178}, {"measurement": "glycan array binding signal (z-score)", "setting": "[12]", "value": -0.416}, {"measurement": "glycan array binding signal (z-score)", "setting": "[13]", "value": 0.702}, {"measurement": "glycan array binding signal (z-score)", "setting": "[14]", "value": -0.202}, {"measurement": "glycan array binding signal (z-score)", "setting": "[15]", "value": -0.113}, {"measurement": "glycan array binding signal (z-score)", "setting": "[16]", "value": -0.798}, {"measurement": "glycan array binding signal (z-score)", "setting": "[17]", "value": -0.447}, {"measurement": "glycan array binding signal (z-score)", "setting": "[18]", "value": -0.625}, {"measurement": "glycan array binding signal (z-score)", "setting": "[19]", "value": -0.155}, {"measurement": "glycan array binding signal (z-score)", "setting": "[20]", "value": 0.336}, {"measurement": "glycan array binding signal (z-score)", "setting": "[21]", "value": 0.275}, {"measurement": "glycan array binding signal (z-score)", "setting": "[22]", "value": -0.947}, {"measurement": "glycan array binding signal (z-score)", "setting": "[23]", "value": 0.285}, {"measurement": "glycan array binding signal (z-score)", "setting": "[24]", "value": 0.112}, {"measurement": "glycan array binding signal (z-score)", "setting": "[25]", "value": 0.033}, {"measurement": "glycan array binding signal (z-score)", "setting": "[26]", "value": -0.507}, {"measurement": "glycan array binding signal (z-score)", "setting": "[27]", "value": -0.506}, {"measurement": "glycan array binding signal (z-score)", "setting": "[28]", "value": -0.162}, {"measurement": "glycan array binding signal (z-score)", "setting": "[29]", "value": -0.165}, {"measurement": "glycan array binding signal (z-score)", "setting": "[30]", "value": -0.334}, {"measurement": "glycan array binding signal (z-score)", "setting": "Fuc(a1-3)GlcNAc", "value": 0.548}, {"measurement": "glycan array binding signal (z-score)", "setting": "[31]", "value": 0.76}, {"measurement": "glycan array binding signal (z-score)", "setting": "[32]", "value": -0.632}, {"measurement": "glycan array binding signal (z-score)", "setting": "[33]", "value": -0.463}, {"measurement": "glycan array binding signal (z-score)", "setting": "[34]", "value": -0.44}, {"measurement": "glycan array binding signal (z-score)", "setting": "[35]", "value": -0.392}, {"measurement": "glycan array binding signal (z-score)", "setting": "[36]", "value": -0.581}, {"measurement": "glycan array binding signal (z-score)", "setting": "[37]", "value": 0.453}, {"measurement": "glycan array binding signal (z-score)", "setting": "[38]", "value": 0.547}, {"measurement": "glycan array binding signal (z-score)", "setting": "[39]", "value": -0.055}, {"measurement": "glycan array binding signal (z-score)", "setting": "[40]", "value": 0.051}, {"measurement": "glycan array binding signal (z-score)", "setting": "[41]", "value": -0.293}, {"measurement": "glycan array binding signal (z-score)", "setting": "[42]", "value": 0.107}, {"measurement": "glycan array binding signal (z-score)", "setting": "[43]", "value": 0.909}, {"measurement": "glycan array binding signal (z-score)", "setting": "[44]", "value": 0.733}]}]}
